{
  "source": "PubChem BioAssay AID624297",
  "about": "(National Center for Advancing Translational Sciences (NCATS), 2012)",
  "note": "Among all 340,000 compounds or so, about 6,200 (1.8%) were called active. The shares of active, inactive and inconclusive entries below differ from those in the screen. The call rests on the fitted dose curve; in most records, active means well fitted activation curve with a large enough effect; inconclusive means small, poorly fitted or top-dose-only effect; inactive means no such curve, though single readings can be large or run the other way. Potencies beside an inconclusive call are fits to weak or partial responses and may not hold up. Potency means the concentration at half of the fitted maximal effect.",
  "data": [
    {"experiment": "A quantitative high throughput screen for small molecules that induce DNA re-replication in SW480 colon adenocarcinoma cells; further: nearly all actives have a fitted effect of over 55% in size; on re-replication activation: % of control where 0% means no effect.", "conditions": "Hoechst DNA content imaging, 48 h; re-replication activation: at 46.1 µM (top of the series) unless noted", "method_in_brief": "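SW480 cells exposed to compounds for 48 hr at 37 C, 5% CO2, then Hoechst-stained 40 min. Nuclear DNA content imaged by fluorescence scanning (405 nm excitation, 500-530 nm emission); re-replication scored as increased high-intensity nuclei.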", "values": [
      {"smiles": "COc1ccc(CCNC(=O)CN2C(=O)COc3ccc(S(=O)(=O)N4CCOCC4)cc32)cc1OC", "Potency": "inactive"},
      {"smiles": "CC(C)c1ccc([N+](=O)[O-])cc1S(=O)(=O)N1CCN(C)CC1", "Potency": "inconclusive: 14.6 µM [activator, single point]"},
      {"smiles": "CC12CCC(C/C1=N/O)C2(C)C", "note": "(stereo unspecified)", "Potency": "inconclusive: 0.731 µM [activator, full curve, poor fit]"},
      {"smiles": "Cc1ccc(OCCOC(=O)c2sc(=S)n(C)c2C)cc1", "Potency": "inconclusive: 29.1 µM [activator, single point]"},
      {"smiles": "CCN1CCN(CCOc2cccc(Oc3ccccc3)c2)CC1", "Potency": "inconclusive: 29.1 µM [activator, single point]"},
      {"smiles": "C/C(=N\\Nc1ccc(Cl)c(C(=O)O)c1)c1ccc(N2CCOCC2)cc1", "Potency": "inconclusive: 0.164 µM [activator, full curve, poor fit]"},
      {"smiles": "CC1(C(=O)NNC(=O)c2ccc(=O)oc2)CC1Br", "note": "(stereo unspecified)", "Potency": "inconclusive: 29.1 µM [activator, single point]"},
      {"smiles": "Cc1c(Cl)cccc1Nc1nc(N)nc(CSCCO)n1", "Potency": "inactive"},
      {"smiles": "CC1CN(S(=O)(=O)c2cccc(C(F)(F)F)c2)CC(C)O1", "note": "(stereo unspecified)", "Potency": "inactive"},
      {"smiles": "COc1ccccc1N1CCN(C(=O)C2CCN(S(=O)(=O)c3ccc4c(c3)CC(C)N4C(C)=O)CC2)CC1", "note": "(stereo unspecified)", "Potency": "inactive"},
      {"smiles": "CCOC(=O)C(NC(=O)NCc1ccc(OC)cc1)(OCC)C(F)(F)F", "note": "(stereo unspecified)", "Potency": "inconclusive: 36.6 µM [activator, partial curve, poor fit]"},
      {"smiles": "CN(CCOc1ccc(Br)cc1)C(=O)CNC(=O)c1ccc2ccccc2c1", "Potency": "inactive"},
      {"smiles": "COc1ccc(C(C(=O)NC2CCCCC2)N(C(=O)CCl)c2ccc(OC)cc2)cc1", "note": "(stereo unspecified)", "Potency": "inconclusive: 0.891 µM [activator, full curve, poor fit]"},
      {"smiles": "Cc1ccc(-c2nn(-c3ccc(F)cc3)cc2C(=O)NCC(c2cccs2)N2CCOCC2)cc1", "note": "(stereo unspecified)", "Potency": "active: 23.1 µM"},
      {"smiles": "Clc1ccc(OCc2nnc3n2N=C(c2ccc4c(c2)OCCO4)CS3)c(Cl)c1", "Potency": "inconclusive: 29.1 µM [activator, single point]"},
      {"smiles": "O=C(O)CCSc1ccccn1", "Potency": "inactive"},
      {"smiles": "CC(=O)NN1C(=O)c2ccc3c4c(ccc(c24)C1=O)C(=O)N(NC(C)=O)C3=O", "Potency": "inconclusive: 29.1 µM [activator, single point]"},
      {"smiles": "CCCCNC(=S)NNC(=O)c1cc(C)on1", "Potency": "inconclusive: 29.1 µM [activator, single point]"},
      {"smiles": "CCOC(=O)C1CCCN(S(=O)(=O)c2c(C)noc2C)C1", "note": "(stereo unspecified)", "Potency": "inactive"},
      {"smiles": "Cc1nn(CC(=O)N2CCN(c3ccccc3)CC2)c(=O)c2ccccc12", "Potency": "inconclusive: 1.84 µM [activator, partial curve, poor fit]"},
      {"smiles": "c1ccc(-c2nnc(-c3ccccn3)nn2)nc1", "Potency": "inconclusive: 16.4 µM [activator, single point]"},
      {"smiles": "Cc1cc(C)c(C(=O)c2cccs2)c(C)c1", "Potency": "inactive"},
      {"smiles": "N#Cc1cccc(C(=O)OCC(=O)NCc2ccco2)c1", "Potency": "inconclusive: 29.1 µM [activator, single point]"},
      {"smiles": "Cn1cc(CN(CCCN2CCOCC2)C(=S)Nc2cccc(Cl)c2)c2ccccc21", "Potency": "active: 16.4 µM"},
      {"smiles": "COC(=O)C1=C(C)n2nnnc2NC1c1cc2ccccc2o1", "note": "(stereo unspecified)", "Potency": "inconclusive: 18.4 µM [activator, single point]"},
      {"smiles": "CN1CCC(NC(=O)c2ccncc2)CC1", "Potency": "inconclusive: 0.92 µM [activator, single point]"},
      {"smiles": "Cc1ccc(NC(=O)Cc2ccccc2)cc1S(=O)(=O)N1CCOCC1", "Potency": "inactive"},
      {"smiles": "COc1ccc(C(=O)N(C)C2CCCCC2)cc1S(=O)(=O)N1CCOCC1", "Potency": "inactive"},
      {"smiles": "COc1cc2nc(NC(=O)c3ccccc3)[nH]c(=O)c2cc1OC", "Potency": "inactive"},
      {"smiles": "COc1c(Cl)cnn(-c2ccc(Cl)c(Cl)c2)c1=O", "Potency": "inconclusive: 29.1 µM [activator, single point]"},
      {"smiles": "COc1ccc(-c2cc(C)no2)cc1S(=O)(=O)Nc1ccccc1", "Potency": "inconclusive: 20.6 µM [activator, single point]"},
      {"smiles": "O=C(CSc1nncn1-c1cccnc1)Nc1ccccc1C(F)(F)F", "Potency": "inactive"},
      {"smiles": "CCCC1=Nc2cc(C(=O)NCc3ccco3)ccc2Sc2ccccc21", "Potency": "active: 5.17 µM"},
      {"smiles": "O=C(CCCN1C(=O)/C(=C\\c2ccccc2)SC1=S)N1CCOCC1", "Potency": "inconclusive: 23.1 µM [activator, single point]"},
      {"smiles": "COc1ccc(C(=O)NC(=S)NCc2ccc(-c3nc4ccccc4o3)cc2)cc1OC", "Potency": "inconclusive: 3.66 µM [activator, full curve, poor fit]"},
      {"smiles": "O=C(NCCN1CCN(c2cccc(Cl)c2)CC1)c1ccc(CSc2nc3ccncc3[nH]2)cc1", "Potency": "inactive"},
      {"smiles": "Cc1nnc(NC(=O)CSc2nnc(C(C)NC(=O)c3ccccc3F)n2C)s1", "note": "(stereo unspecified)", "Potency": "inconclusive: 29.1 µM [activator, single point]"},
      {"smiles": "CCO[C@@H]1OC(C(=O)N2CCN(Cc3ccc4c(c3)OCO4)CC2)=C[C@H](c2cn(C(C)=O)c3ccccc23)[C@H]1CCCO", "Potency": "inactive"},
      {"smiles": "Cc1cc(OCc2cc(C(=O)NCCN3CCCCC3CO)no2)cc(C)c1Cl", "note": "(stereo unspecified)", "Potency": "inconclusive: 25.9 µM [activator, single point]"},
      {"smiles": "CCC1CCCCN1Cc1ccc(OC)c(C)c1C", "note": "(stereo unspecified)", "Potency": "inactive"},
      {"smiles": "Cc1ccccc1C(=O)Nc1ccnc(-c2ccncc2)n1", "Potency": "inactive"},
      {"smiles": "CC[C@@]1(C(=O)OC)N[C@H](CN(C)S(=O)(=O)c2ccccc2)[C@@H]2C(=O)N(C)C(=O)[C@@H]21", "Potency": "inconclusive: 20.6 µM [activator, partial curve, poor fit]"},
      {"smiles": "N#C/C(=C/c1ccncc1)c1nc2ccccc2c(=O)[nH]1", "Potency": "inconclusive: 29.1 µM [activator, single point]"},
      {"smiles": "Cc1ccc(-n2nc(C)c3c(C)c(CCC(=O)NCC4CCCO4)c(=O)n(C)c32)cc1", "note": "(stereo unspecified)", "re-replication activation": "inconclusive: -23.1% [activator]"},
      {"smiles": "COC(=O)c1cccc2c1NC(=O)C2=O", "Potency": "inconclusive: 18.4 µM [activator, single point]"},
      {"smiles": "O=C(Nc1cccc(S(=O)(=O)N2CCCCC2)c1)c1ccc2c(c1)OCO2", "Potency": "inconclusive: 6.51 µM [activator, partial curve, poor fit]"}
    ]}
  ]
}
